{
  "source": "paper PMC11788964",
  "about": "“Clinical Pharmacology and Approach to Dose Selection of Emestedastat, a Novel Tissue Cortisol Synthesis Inhibitor for the Treatment of Central Nervous System Disease” (Clinical Pharmacology in Drug Development, 2025)",
  "tested_on": "HPA axis hormones",
  "assay": "HPA axis endocrinology (plasma or serum hormones) in clinical trials",
  "type": "in vivo, human",
  "data": [
    {"smiles": "O=C(c1csc(-c2cn[nH]c2)c1)N1C2CCC1CC(O)(c1ncccn1)C2", "note": "(centres unmarked) [emestedastat, (5‐(1H‐Pyrazol‐4‐yl)thiophen‐3‐yl)(3‐hydroxy‐3‐(pyrimidin‐2‐yl)‐8 azabicyclo[3.2.1]octan‐8‐yl) methanone]", "values": [
      {"measurement": "plasma cortisol change from baseline, difference between treatments", "setting": "XanADu trial, 10 mg daily vs placebo, weeks 4, 8, 12, P = .216", "value": "no differences"},
      {"measurement": "ACTH change from baseline across trials", "setting": "end of treatment, MAD, XanADu, XanaMIA‐DR, no dose‐response", "value": "approximately doubled from baseline"}
    ]}
  ]
}
